For at least one compound, name, drawing or mass did not settle the structure.
Assays:
F VIII [1] = test: F VIII activity in cryoprecipitate prepared from MB-treated plasma (one-stage APTT method); format: biochemical; settings: supplementation of 50 to 100 µmol/l of ascorbate to the plasma before MB treatment
F VIII [2] = test: Inactivation of F VIII activity during MB photochemical treatment of 2 ml pooled plasma samples (chromogenic substrate assay); format: biochemical; settings: ascorbate concentration increased from 35 to 135 µmol/l; 1 µmol/l MB, illumination 1 h
fibrinogen [3] = test: Inactivation of clottable fibrinogen during MB photochemical treatment of 2 ml pooled plasma samples (thromboplastin time assay); format: biochemical; settings: ascorbate concentration increased from 35 to 135 µmol/l; 1 µmol/l MB, illumination 1 h
[4] = Disappearance of ascorbate and urate from plasma during MB photochemical treatment (HPLC)
human erythrocytes = settings: ascorbate 10-100 µmol/l; cited from earlier work
F VIII [5] = test: Residual F VIII activity in 12 FFP units after MB treatment; format: biochemical; settings: endogenous ascorbate, 1 µmol/l MB, 1 h
fibrinogen [6] = test: Clottable fibrinogen in cryoprecipitate prepared from MB-treated plasma (Clauss method); format: biochemical; settings: supplementation of 50 to 100 µmol/l of ascorbate to the plasma before MB treatment
fibrinogen [7] = test: Residual fibrinogen activity in 12 FFP units after MB treatment (Clauss method); format: biochemical; settings: endogenous ascorbate, 1 µmol/l MB, 1 h

## O=C1O[C@H]([C@@H](O)CO)C(O)=C1O [ascorbate]
F VIII [1]
  F VIII activity in the cryoprecipitate: clearly increase
F VIII [2]
  decrease of the inactivation of F VIII: 60%
Fibrinogen [3]
  decrease of the inactivation of fibrinogen: 60%
[4]; illumination in plasma packs
  disappearance of ascorbate from plasma: 100 µmol/60 min
[4]; plasma packs
  utilization of ascorbate during the treatment: about 100 µmol/l
[4]; plastic tubes, fluorescent tubes, 45 min photooxidation
  decrease of ascorbate in plasma: 100 µmol/L
Human erythrocytes
  effect on photohemolysis: stimulated photohemolysis
F VIII [5]
  residual activity of F VIII versus initial plasma ascorbate level: correlated directly
Fibrinogen [6]
  amount of clottable fibrinogen in the cryoprecipitate: clearly increase
Fibrinogen [7]
  residual activity of fibrinogen versus initial plasma ascorbate level: correlated directly

Source: patent EP0762893B1, “TREATMENT OF PLASMA” (SUOMEN PUNAINEN RISTI VERIPALVELU, priority 1994, dated 1995)
